# Measured values from the supplement of paper PMC12823440, “Inhibitors supercharge kinase turnover through native proteolytic circuits” (Nature, 2025).
# Amino acid sequences for entries named in this document (tags omitted).
# UniProt Q01974, whole entry: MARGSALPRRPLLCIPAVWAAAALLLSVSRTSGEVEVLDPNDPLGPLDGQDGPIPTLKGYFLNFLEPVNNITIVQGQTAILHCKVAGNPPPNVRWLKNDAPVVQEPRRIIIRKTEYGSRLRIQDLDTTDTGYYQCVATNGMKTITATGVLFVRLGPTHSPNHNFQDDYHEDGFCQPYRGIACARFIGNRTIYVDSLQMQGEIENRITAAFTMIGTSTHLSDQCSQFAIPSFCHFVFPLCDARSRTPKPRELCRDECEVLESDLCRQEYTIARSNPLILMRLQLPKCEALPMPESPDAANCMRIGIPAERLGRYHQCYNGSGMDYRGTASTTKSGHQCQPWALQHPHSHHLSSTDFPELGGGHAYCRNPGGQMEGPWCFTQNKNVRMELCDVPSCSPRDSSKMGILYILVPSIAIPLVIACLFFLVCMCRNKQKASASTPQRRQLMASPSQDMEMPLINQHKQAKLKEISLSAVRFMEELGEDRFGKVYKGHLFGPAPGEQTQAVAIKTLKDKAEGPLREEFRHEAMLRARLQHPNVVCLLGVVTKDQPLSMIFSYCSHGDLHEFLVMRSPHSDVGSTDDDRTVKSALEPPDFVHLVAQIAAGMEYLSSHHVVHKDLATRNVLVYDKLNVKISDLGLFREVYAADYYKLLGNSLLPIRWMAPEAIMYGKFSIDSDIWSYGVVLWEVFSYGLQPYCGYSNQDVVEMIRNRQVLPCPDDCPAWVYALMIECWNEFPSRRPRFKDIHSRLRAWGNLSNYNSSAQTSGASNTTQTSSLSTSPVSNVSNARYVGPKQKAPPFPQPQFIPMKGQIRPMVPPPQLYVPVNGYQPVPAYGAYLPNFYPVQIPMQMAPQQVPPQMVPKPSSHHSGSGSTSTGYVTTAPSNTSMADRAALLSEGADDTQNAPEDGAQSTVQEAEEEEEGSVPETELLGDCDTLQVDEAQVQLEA
# UniProt Q15418, whole entry: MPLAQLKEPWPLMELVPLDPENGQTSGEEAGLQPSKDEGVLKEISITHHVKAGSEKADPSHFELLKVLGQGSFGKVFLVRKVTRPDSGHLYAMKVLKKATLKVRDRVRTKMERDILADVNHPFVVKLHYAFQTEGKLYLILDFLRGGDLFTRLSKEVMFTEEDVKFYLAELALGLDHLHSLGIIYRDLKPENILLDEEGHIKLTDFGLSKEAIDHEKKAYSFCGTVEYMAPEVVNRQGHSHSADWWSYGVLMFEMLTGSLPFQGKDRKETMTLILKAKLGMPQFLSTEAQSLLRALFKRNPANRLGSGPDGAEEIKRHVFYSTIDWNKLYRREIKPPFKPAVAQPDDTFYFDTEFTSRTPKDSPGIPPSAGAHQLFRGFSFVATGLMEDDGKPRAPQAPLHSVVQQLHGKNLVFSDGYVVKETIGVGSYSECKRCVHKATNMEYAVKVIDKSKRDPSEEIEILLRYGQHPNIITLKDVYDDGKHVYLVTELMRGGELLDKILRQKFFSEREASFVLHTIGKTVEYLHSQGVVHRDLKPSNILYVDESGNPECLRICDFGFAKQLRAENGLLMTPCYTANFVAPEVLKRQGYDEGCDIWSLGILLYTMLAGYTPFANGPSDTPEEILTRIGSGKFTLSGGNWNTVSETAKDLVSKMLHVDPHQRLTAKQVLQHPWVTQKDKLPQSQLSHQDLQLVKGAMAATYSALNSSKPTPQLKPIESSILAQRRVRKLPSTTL
# The list shows a part of the results. The calls rarely recur for the same compound in another form.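 In K562 cells expressing nanoluciferase-fused kinases, luminescence was recorded at 4 h intervals between 2 and 18 h, normalized as percent of control with DMSO at 100% and a positive control at 0%. A significant (2 sigma) signal drop marks a time point as decreased. The authors' rule for a hit is not shown and takes in more than the number of time points.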
# Molecular target: ROR2 (UniProt Q01974)
# Test: number of time points (of 5) at which kinase-Nluc abundance scored as decreased, DMSO-normalised (count); higher = more persistent destabilization
# Conditions: K562; 2-18 h
row,Structure (SMILES),number of time points
1,Cc1ccc(-c2ncn(-c3ccc(Nc4nccc(-c5cccc(N6CCOCC6)c5)n4)cc3)n2)cn1 (10 µM),0
2,COc1ccc2c(c1OC)OC1c3ccc(O)cc3OCC21 (stereo not drawn) [Methylnissolin] (10 µM),0
3,Cn1cc(-c2ccc3nnc(C(F)(F)c4ccc5ncccc5c4)n3n2)cn1 (10 µM),0
4,Nc1ncc(-c2ccc(C(=O)N3CCNCC3)cc2)nc1-c1ccc(C(F)(F)F)cc1 (10 µM),0
5,CN(C)Cc1cccc(N=C(c2ccccc2)c2c(O)[nH]c3cc(C(=O)N(C)C)ccc23)c1 (10 µM),0

# Molecular target: RPS6KA1 (UniProt Q15418)
# Test: as above
# Conditions: K562; 2-18 h
row,Structure (SMILES),number of time points
1,C[C@H]1Cc2ccccc2N1C(=O)Cc1nc(N2CCOCC2)cc(=O)[nH]1 (2.5 µM),0
2,CC(C)c1cc(/C=C(\C#N)C(N)=O)cc(C(C)C)c1O (10 µM),0
3,COc1c(C)c(C(=O)c2ccc(N)c(C(=O)O)c2)n2ccccc12 (10 µM),0
4,C[C@@H]1CCc2ncc(F)cc2[C@H]2CCCN2c2ccn3ncc(c3n2)C(=O)N1 [Selitrectinib] (10 µM),0
5,CCN(C)C(=O)c1ccc2c(C(=Nc3ccc(CN4CCCCC4)cc3)c3ccccc3)c(O)[nH]c2c1 (2.5 µM),0
6,O=C(CO)N1CCC(c2n[nH]c(-c3ccc(Cl)cc3)c2-c2ccncn2)CC1 (10 µM),0
7,C[C@@H]1COCCN1c1cc(C2([S@](C)(=N)=O)CC2)nc(-c2cc[nH]c3nccc2-3)n1 [Ceralasertib] (2.5 µM),0
8,CCOC(=O)c1c2c3c(cccc3[nH]c1=O)C(=O)c1ccccc1-2 (10 µM),0

# An excerpt of these results, bar-delimited.
row | Structure (SMILES) | number of time points
4 | C[C@@H]1CCc2ncc(F)cc2[C@H]2CCCN2c2ccn3ncc(c3n2)C(=O)N1 [Selitrectinib] (10 µM) | 0
5 | CCN(C)C(=O)c1ccc2c(C(=Nc3ccc(CN4CCCCC4)cc3)c3ccccc3)c(O)[nH]c2c1 (2.5 µM) | 0
